Source: PMC12574955, “The Ync13–Rga7–Rng10 complex selectively coordinates secretory vesicle trafficking and secondary septum formation during cytokinesis” (PLOS Biology, 2025)
These are yes or no findings as the source states them, for the method shown. Some entries that bind do so weakly or less than the wild type. Sequences can lack the tags named with a protein.

Amino acid sequences for entries named in this document (tags omitted).
UniProt Q10287: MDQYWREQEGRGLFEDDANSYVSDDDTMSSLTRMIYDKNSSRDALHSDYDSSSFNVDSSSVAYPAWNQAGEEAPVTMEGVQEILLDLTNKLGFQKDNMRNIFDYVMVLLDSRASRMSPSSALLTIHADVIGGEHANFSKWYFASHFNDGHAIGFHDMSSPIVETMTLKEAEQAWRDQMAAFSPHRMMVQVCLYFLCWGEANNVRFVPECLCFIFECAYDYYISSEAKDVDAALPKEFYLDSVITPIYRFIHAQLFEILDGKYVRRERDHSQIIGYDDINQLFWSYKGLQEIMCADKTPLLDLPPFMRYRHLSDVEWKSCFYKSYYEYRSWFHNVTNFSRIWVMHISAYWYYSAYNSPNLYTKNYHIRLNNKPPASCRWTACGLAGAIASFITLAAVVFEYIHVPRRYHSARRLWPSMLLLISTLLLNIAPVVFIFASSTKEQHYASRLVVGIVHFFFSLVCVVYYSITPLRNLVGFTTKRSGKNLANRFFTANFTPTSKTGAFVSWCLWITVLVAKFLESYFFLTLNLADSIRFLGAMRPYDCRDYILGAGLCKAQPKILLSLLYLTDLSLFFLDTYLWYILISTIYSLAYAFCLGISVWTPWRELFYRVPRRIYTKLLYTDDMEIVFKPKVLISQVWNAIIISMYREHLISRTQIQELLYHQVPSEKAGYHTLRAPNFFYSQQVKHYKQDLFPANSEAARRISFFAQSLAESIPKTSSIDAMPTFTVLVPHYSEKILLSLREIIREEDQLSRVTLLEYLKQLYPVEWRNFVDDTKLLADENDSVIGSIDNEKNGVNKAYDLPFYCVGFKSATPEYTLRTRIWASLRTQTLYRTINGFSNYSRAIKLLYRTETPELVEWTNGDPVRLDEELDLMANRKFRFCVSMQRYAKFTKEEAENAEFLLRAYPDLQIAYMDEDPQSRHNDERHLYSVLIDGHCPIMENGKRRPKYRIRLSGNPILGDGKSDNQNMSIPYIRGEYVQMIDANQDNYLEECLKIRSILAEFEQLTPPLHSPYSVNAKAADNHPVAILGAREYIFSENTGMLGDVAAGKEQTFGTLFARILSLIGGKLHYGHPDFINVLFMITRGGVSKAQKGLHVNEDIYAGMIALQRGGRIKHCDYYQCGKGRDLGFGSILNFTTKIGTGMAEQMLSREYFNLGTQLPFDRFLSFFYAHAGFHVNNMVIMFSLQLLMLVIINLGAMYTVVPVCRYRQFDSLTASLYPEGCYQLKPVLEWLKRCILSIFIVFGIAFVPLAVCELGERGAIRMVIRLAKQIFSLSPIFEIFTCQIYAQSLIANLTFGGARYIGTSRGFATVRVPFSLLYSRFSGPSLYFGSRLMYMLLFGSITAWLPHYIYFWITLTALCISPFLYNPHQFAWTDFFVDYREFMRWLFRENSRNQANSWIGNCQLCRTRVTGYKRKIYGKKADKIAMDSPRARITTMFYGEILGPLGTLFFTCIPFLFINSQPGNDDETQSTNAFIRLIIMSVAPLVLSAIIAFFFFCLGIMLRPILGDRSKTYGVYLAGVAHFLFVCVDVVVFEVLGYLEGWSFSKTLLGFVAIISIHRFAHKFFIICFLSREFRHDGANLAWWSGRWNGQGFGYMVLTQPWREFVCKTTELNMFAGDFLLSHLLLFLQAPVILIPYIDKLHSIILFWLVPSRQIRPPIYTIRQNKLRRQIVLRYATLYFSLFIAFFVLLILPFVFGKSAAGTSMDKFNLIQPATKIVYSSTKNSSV

T1: Rga7-mEGFP (Schizosaccharomyces pombe) (UniProt O94466)
T1 sequence: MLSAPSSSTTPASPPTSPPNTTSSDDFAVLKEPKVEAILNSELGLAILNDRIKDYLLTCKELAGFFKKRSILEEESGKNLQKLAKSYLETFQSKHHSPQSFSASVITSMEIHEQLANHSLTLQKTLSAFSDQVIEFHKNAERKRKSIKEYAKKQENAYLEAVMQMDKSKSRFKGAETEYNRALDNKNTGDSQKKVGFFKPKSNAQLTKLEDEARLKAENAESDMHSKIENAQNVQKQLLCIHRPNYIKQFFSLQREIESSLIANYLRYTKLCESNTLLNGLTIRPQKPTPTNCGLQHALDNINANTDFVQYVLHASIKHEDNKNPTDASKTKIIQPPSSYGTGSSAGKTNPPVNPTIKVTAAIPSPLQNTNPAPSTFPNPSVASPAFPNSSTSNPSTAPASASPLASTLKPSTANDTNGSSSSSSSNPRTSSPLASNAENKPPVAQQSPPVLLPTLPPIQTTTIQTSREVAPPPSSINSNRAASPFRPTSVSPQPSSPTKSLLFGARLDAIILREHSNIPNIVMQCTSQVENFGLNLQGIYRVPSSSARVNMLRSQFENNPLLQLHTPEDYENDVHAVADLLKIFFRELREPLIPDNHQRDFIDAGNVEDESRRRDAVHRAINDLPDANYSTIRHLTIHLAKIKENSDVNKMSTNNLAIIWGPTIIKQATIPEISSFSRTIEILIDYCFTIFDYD

T2: Rng10-mEGFP (Schizosaccharomyces pombe) (UniProt Q9P6L9)
T2 sequence: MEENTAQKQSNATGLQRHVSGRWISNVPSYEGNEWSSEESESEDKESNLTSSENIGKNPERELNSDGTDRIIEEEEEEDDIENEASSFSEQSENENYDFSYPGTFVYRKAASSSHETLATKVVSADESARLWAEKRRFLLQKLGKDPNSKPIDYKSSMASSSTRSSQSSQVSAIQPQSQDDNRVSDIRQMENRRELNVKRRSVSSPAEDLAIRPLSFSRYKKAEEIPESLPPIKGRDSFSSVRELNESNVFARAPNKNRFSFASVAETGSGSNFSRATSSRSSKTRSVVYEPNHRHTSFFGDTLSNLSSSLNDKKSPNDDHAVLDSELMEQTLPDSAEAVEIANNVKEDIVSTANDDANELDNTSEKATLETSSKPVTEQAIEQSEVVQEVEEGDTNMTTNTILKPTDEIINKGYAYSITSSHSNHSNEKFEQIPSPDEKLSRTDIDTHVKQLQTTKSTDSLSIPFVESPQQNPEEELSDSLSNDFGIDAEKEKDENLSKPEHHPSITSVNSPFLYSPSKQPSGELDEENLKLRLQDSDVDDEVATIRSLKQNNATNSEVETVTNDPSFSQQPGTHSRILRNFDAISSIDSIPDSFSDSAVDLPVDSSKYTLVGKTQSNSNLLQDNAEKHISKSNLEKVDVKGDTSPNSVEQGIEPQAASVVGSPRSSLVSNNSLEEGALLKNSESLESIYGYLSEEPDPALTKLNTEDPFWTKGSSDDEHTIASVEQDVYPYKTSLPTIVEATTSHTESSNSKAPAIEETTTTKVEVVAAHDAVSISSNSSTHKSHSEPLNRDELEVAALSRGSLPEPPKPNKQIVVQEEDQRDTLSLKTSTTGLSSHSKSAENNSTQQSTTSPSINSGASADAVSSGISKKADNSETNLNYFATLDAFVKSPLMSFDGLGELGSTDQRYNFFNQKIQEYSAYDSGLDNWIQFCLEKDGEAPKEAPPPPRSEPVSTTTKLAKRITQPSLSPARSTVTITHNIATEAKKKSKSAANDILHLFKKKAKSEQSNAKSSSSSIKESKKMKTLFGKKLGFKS

T3: 3nmt1-mECitrine-Ync13 (Schizosaccharomyces pombe) (UniProt O13683)
T3 sequence: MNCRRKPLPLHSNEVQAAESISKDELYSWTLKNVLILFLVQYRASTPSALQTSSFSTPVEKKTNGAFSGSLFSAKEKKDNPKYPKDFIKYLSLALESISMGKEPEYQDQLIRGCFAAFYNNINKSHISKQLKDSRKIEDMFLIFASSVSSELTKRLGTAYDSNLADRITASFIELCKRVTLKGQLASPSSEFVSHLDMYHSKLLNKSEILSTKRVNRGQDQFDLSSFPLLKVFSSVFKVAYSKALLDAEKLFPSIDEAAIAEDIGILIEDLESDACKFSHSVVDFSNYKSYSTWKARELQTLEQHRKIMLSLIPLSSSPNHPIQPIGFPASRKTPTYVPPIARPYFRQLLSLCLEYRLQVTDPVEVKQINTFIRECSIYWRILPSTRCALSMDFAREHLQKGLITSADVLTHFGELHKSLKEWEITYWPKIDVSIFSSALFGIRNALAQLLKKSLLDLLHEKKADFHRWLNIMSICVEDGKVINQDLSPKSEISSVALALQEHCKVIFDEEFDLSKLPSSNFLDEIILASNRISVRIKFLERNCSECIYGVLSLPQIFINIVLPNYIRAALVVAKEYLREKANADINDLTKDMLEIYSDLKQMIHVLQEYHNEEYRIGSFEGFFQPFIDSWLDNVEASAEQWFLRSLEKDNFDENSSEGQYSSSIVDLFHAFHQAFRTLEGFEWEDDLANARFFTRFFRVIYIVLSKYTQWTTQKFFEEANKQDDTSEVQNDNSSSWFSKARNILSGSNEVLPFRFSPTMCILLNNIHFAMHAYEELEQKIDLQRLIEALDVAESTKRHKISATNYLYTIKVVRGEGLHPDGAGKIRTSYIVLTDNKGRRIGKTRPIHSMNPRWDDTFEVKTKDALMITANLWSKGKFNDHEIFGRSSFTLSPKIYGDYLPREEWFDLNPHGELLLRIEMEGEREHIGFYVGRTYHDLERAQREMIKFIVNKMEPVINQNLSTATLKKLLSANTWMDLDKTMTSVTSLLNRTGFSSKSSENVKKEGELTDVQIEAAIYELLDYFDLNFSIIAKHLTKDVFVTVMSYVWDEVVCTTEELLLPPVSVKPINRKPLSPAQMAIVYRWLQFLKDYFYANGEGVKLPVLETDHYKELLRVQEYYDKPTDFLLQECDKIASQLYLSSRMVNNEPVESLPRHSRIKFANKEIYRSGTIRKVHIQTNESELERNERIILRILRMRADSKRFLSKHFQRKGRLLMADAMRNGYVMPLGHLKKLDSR

B1: Rga7-mCherry (protein, UniProt O94466 1-695)
chain: T1 sequence
B2: Sec1-tdTomato (protein, UniProt O94590 1-693)
chain: MTLLELQKELFLSKINSVECATKWKVLIVDTKTADIINHFITIHSLLEEKIAAVEILENPRTPNSSFEALYILHSEEKLVDCILKDEEYDKRYPGIHIVFLDMVKEPLINKLRTSRIASKIRTVQVAYLDFTSLESRYFQVHDSFSGLRLYHPSNAAIIRQELSKVAHGIFSVCVSLGISPNIRCYYPKNAPHASKTMSFILANQLSEIVEEYCSKHPGYHEAASKSTCLIVDRSLDTAAPFLHEFTYQAMIHDLLPIKNEQYPYEILGPQGTEKRTGKLDDDDLVYTTIRHMHMRDAIEKLMKDFNQFCIDNTLFLDKERATSLNDMRSMLAGLSDFQELRDQYSLHLTMAQECMNIFEKQQLNLIGAIEQDLSTGSNVEGKVPRSVLSELLPLLDEGNAEESTKIRLLLLYIIYRDGIILQDLFRLFRHSNLSTSREQIFQNLEQLGTRVIKNLTDQSSKRKEVANSLPAGEDVYELSRYVPTLKVVLENLIQDKLDPELFPYVRNTTPQTEVSMEQTSLRSSRPSWTRSRSMASKLPREKMLVFVAGGTTFSELRTCYELSDKYNKDIYIGSTVCYSPNEWLDFFSKFQQPREALKFPEDKPRHIPCLEARPSPNRIQEQPNIDVPSTRYENTSSSDAVSIHKDEKKSKGKSHKLGKLMMSSKKDKDKSKEKVPTYGTSDKKKKKRFGVF
B3: Smi1-tdTomato (protein, UniProt O14362 1-504)
chain: MSKNSFSSMANSVTSFFQSLTTPNRHADPSFRPSRREKQSRLPTPLQSVAASAYSGVNASQTGLLNDSRANSVTNLPNSSNTSQVGLNNISPAPVGYVPGSKTNELANNSMEMQEISPNGSASLPPPVSESWRRIDRWAEENYYELYCQLCYGATVADVDSLEYELECTLPRDVRESLYIHDGQDRGGQPTGILFGVTLLDIEEIEEESELWRRVAQSYAEATLAGKIDQAVASRQASFPPGAVQCVYAHPGWIPLAKDFVGNNIAIDLAPGPAGQWGQVILFGRDQDTKYVVARSWADFLAIVAYDMENGKWLVDEDDNSLRLIYGPPREQWSYLDILKYRARKAERRKFKKRDGKRTTRPIPKSIAKEDVTNSANSTAPSTGTTVLDDGLDNNYEDIPLYGPSKDEELIKKEELEADTDLGLINTSEINQPANLPDEPTAETSNPVSATTVEAVTTTADNKDEEKNDHVTEDVSQNSTIAEASSLQAQEEEKEIETTSVKQE
B4: Fim1-mCherry (protein, UniProt O59945 1-614)
chain: MLALKLQKKYPELTNEEILTLTDQFNKLDVDGKGYLDQPTTIKAFEDSKKGSYDEVREAIREVNVDSSGRVEPEDFVGIFNVLKKGVEGTEVKKGRITIKGSSSSVSHTINEEERREFIKHINSVLAGDPDVGSRVPINTETFEFFDQCKDGLILSKLINDSVPDTIDERVLNKQRNNKPLDNFKCIENNNVVINSAKAMGGISITNIGAGDILEGREHLILGLVWQIIRRGLLGKIDITLHPELYRLLEEDETLDQFLRLPPEKILLRWFNYHLKAANWPRTVSNFSKDVSDGENYTVLLNQLAPELCSRAPLQTTDVLQRAEQVLQNAEKLDCRKYLTPTAMVAGNPKLNLAFVAHLFNTHPGLEPLNEEEKPEIEPFDAEGEREARVFTLWLNSLDVTPSIHDFFNNLRDGLILLQAYDKITPNTVNWKKVNKAPASGDEMMRFKAVENCNYAVDLGKNQGFSLVGIQGADITDGSRTLTLALVWQMMRMNITKTLHSLSRGGKTLSDSDMVAWANSMAAKGGKGSQIRSFRDPSISTGVFVLDVLHGIKSEYVDYNLVTDGSTEELAIQNARLAISIARKLGAVIFILPEDIVAVRPRLVLHFIGSLMAV
B5: Clc1-mCherry (protein, UniProt Q9USP6 1-229)
chain: MSQFPALEDFDDGLVTAPVDDSKNNTDFLEREKLALGEDAGQFETPEDKDALLNFENDSEAEQTRFEQNFPPIDAEMQASGTFSAPKAPYMGQAEVHPPEDESGDPEPVRKWKEDQMKRIQERDESSKKLRESNIEKARKAIDDFYENFNDKRDKVIAKSRKEQEKLLEENESKSTGTTSWERILKLIDLSDKPEAHGRSTERFRELLISLAKDSNAPGAAGTTVSSSS

Columns and labels:
Assay in all cases: ectopic mistargeting to mitochondria (Tom20-GBP); protein 1 tagged with mEGFP or mECitrine tethered to mitochondria by Tom20-GBP in live S. pombe cells; recruitment of tdTomato/mCherry/RFP-tagged protein 2 seen by confocal microscopy; Ync13 with Sec1 also tested in rng10Δ cells
[1] = target: T1, Rga7-mEGFP (Schizosaccharomyces pombe)
[2] = target: T2, Rng10-mEGFP (Schizosaccharomyces pombe)
[3] = target: T3, 3nmt1-mECitrine-Ync13 (Schizosaccharomyces pombe)

Molecule | binding [1] | binding [2] | binding [3]
tdTomato-Bgs1 (from UniProt Q10287 1-1729) (enzyme) | no binding | no binding | –
B1 | – | – | binds
B2 | – | – | binds
B3 | binds | – | –
B4 | – | – | no binding
B5 | – | – | no binding
